Experimental findings from PMC7178969 are described below.

Chains of the proteins cited; added tags and fusions are not shown. Lines headed by an entry give the natural chain unless they say otherwise; changes in a name come on top.
UniProt P41212: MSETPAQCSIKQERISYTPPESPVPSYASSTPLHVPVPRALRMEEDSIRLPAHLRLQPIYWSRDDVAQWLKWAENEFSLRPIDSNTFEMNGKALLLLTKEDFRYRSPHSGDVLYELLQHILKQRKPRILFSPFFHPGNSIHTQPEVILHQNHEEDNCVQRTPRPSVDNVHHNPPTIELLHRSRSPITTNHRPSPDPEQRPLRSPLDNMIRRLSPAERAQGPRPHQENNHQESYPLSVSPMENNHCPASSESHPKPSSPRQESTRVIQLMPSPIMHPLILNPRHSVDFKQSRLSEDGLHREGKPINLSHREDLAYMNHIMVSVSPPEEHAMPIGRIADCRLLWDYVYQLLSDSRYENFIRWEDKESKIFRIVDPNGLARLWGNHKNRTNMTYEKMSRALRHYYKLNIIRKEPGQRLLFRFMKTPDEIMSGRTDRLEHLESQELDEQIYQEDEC
UniProt P46109: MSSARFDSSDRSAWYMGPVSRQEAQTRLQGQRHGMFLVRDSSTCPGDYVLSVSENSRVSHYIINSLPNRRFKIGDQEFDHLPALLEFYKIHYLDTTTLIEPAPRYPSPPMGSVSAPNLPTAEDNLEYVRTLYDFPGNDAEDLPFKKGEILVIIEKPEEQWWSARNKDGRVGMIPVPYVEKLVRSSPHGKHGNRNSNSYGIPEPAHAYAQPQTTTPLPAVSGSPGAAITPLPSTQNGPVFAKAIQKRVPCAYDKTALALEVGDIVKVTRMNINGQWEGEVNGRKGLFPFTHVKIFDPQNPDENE

Common to all, as to assay: co-IP; 500 ug total protein from HCCLM3-PCDH-CRKL or HCCLM3-PCDH-NC cells in RIPA buffer; anti-CRKL, anti-ETV6 or nonspecific anti-rabbit IgG 1 h at 4 C; protein A/G agarose beads overnight at 4 C; washed 3 times with RIPA; Western blot
Assay [1] addresses E-Twenty Six (ETS) variant gene 6 (ETV6) (human (endogenous in HCCLM3)) (UniProt P41212).
The target of assay [2] is CRKL (v-crk sarcoma virus CT10 oncogene homologue (avian)-like), endogenous in HCCLM3-PCDH cells (human (endogenous in HCCLM3)) (UniProt P46109).
For assay [3], the target named is CRKL overexpressed from PCDH-EF1-MCS-T2A-Puro-CRKL in HCCLM3 cells (UniProt P46109).

No constants are given. Whether binding was seen depends on the method and setting. In cells and extracts the contact can be indirect. Some entries that bind do so weakly or less than the wild type.

With “CRKL (v-crk sarcoma virus CT10 oncogene homologue (avian)-like), endogenous in HCCLM3-PCDH cells (from UniProt P46109 1-303)”, the binding entry in assay [1] is “binds”.

Consider “CRKL overexpressed from PCDH-EF1-MCS-T2A-Puro-CRKL in HCCLM3 cells (from UniProt P46109 1-303)”, for which the binding result in assay [1] is given as “binds”.

With “E-Twenty Six (ETS) variant gene 6 (ETV6) (from UniProt P41212 1-452)”, the binding result in assay [2] and in assay [3] was “binds” each time.
